Measured values as given in article PMC12317064.
No constants are given. Whether binding was seen depends on the method and setting. Binding seen in cells or lysates may run through a third protein. Some entries that bind do so weakly or less than the wild type. Tags and fused reporters may be left off the sequences shown.

Sequences of proteins named here, by UniProt entry; tags and fusion partners are left off.
UniProt Q9VUX2: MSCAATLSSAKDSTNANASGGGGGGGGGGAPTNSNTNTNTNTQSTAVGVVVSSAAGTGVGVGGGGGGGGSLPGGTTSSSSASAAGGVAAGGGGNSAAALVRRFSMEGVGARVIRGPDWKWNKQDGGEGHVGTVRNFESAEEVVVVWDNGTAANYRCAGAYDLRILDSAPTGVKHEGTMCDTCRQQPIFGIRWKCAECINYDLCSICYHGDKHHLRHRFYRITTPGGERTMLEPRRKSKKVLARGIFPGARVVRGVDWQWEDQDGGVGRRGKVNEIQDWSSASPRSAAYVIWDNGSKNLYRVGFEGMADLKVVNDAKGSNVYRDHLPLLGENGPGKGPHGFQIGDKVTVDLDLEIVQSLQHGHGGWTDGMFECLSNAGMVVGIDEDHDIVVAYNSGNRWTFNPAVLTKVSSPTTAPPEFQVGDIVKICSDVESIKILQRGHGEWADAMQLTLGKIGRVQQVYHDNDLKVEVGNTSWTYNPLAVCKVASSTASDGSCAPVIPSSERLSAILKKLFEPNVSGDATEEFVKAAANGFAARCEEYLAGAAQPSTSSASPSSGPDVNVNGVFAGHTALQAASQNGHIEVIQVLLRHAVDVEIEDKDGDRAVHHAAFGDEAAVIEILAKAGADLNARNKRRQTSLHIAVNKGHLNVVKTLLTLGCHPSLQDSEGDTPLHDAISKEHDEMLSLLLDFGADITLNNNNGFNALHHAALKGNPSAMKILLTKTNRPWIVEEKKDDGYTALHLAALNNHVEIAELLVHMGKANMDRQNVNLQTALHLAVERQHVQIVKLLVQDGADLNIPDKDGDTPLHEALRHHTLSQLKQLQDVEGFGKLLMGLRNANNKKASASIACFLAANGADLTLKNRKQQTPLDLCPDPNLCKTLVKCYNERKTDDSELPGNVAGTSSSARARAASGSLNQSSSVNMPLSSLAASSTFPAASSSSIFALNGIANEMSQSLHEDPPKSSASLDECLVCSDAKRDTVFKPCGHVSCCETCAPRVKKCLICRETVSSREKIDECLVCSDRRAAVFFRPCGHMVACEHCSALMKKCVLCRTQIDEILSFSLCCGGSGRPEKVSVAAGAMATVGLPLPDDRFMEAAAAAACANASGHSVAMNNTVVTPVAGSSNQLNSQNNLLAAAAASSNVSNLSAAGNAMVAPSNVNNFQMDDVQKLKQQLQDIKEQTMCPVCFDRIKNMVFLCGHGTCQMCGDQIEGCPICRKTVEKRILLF

T1: Flag-tagged AP-2α (Drosophila) (UniProt P91926)
T1 sequence: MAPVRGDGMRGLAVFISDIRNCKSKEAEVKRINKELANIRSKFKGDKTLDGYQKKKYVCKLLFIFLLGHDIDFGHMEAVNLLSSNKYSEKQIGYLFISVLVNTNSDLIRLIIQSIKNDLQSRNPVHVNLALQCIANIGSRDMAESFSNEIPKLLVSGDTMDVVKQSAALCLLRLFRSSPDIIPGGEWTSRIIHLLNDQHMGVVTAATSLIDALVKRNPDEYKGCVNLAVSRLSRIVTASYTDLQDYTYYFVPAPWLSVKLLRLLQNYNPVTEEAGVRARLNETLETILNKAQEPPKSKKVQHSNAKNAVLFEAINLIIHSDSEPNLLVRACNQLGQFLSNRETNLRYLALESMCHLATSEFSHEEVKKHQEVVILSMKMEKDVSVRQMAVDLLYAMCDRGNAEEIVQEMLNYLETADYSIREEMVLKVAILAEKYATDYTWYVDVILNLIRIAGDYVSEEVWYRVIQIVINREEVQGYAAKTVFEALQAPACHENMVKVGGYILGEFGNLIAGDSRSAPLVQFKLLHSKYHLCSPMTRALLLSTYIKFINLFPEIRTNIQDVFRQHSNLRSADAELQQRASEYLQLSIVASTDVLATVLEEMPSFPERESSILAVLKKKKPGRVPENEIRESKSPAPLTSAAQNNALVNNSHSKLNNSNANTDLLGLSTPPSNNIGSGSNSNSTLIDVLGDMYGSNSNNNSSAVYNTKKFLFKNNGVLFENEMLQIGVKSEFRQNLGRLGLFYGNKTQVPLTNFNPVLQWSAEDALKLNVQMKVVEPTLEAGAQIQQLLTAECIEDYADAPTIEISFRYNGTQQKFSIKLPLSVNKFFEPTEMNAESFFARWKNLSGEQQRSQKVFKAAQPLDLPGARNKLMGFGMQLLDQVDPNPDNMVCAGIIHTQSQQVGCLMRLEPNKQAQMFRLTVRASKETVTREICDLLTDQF


What was measured:
[1] = biological target: T1, Flag-tagged AP-2α (Drosophila); assay: co-IP; S2 cells co-transfected with Flag- and HA-tagged proteins, harvested after 72 h; NP-40 buffer (50 mM Tris pH 7.4, 150 mM NaCl, 1% NP-40); primary antibody overnight at 4 °C, Protein A/G magnetic beads; western blotting
[2] = biological target: Flag-tagged Mib1 (Drosophila) (UniProt Q9VUX2); assay: as above

binding [1]	binding [2]	Molecule
binds		HA-tagged Mib1 (from UniProt Q9VUX2 1-1226) (enzyme)
	binds	HA-tagged AP-2α (protein, UniProt P91926 1-940) MAPVRGDGMRGLAVFISDIRNCKSKEAEVKRINKELANIRSKFKGDKTLDGYQKKKYVCKLLFIFLLGHDIDFGHMEAVNLLSSNKYSEKQIGYLFISVLVNTNSDLIRLIIQSIKNDLQSRNPVHVNLALQCIANIGSRDMAESFSNEIPKLLVSGDTMDVVKQSAALCLLRLFRSSPDIIPGGEWTSRIIHLLNDQHMGVVTAATSLIDALVKRNPDEYKGCVNLAVSRLSRIVTASYTDLQDYTYYFVPAPWLSVKLLRLLQNYNPVTEEAGVRARLNETLETILNKAQEPPKSKKVQHSNAKNAVLFEAINLIIHSDSEPNLLVRACNQLGQFLSNRETNLRYLALESMCHLATSEFSHEEVKKHQEVVILSMKMEKDVSVRQMAVDLLYAMCDRGNAEEIVQEMLNYLETADYSIREEMVLKVAILAEKYATDYTWYVDVILNLIRIAGDYVSEEVWYRVIQIVINREEVQGYAAKTVFEALQAPACHENMVKVGGYILGEFGNLIAGDSRSAPLVQFKLLHSKYHLCSPMTRALLLSTYIKFINLFPEIRTNIQDVFRQHSNLRSADAELQQRASEYLQLSIVASTDVLATVLEEMPSFPERESSILAVLKKKKPGRVPENEIRESKSPAPLTSAAQNNALVNNSHSKLNNSNANTDLLGLSTPPSNNIGSGSNSNSTLIDVLGDMYGSNSNNNSSAVYNTKKFLFKNNGVLFENEMLQIGVKSEFRQNLGRLGLFYGNKTQVPLTNFNPVLQWSAEDALKLNVQMKVVEPTLEAGAQIQQLLTAECIEDYADAPTIEISFRYNGTQQKFSIKLPLSVNKFFEPTEMNAESFFARWKNLSGEQQRSQKVFKAAQPLDLPGARNKLMGFGMQLLDQVDPNPDNMVCAGIIHTQSQQVGCLMRLEPNKQAQMFRLTVRASKETVTREICDLLTDQF
